Our source for the crude mass and isolated mass values is patent US4487718A (Kowa Company, Ltd., priority 1983, dated 1984).

This data set in a line: general procedure: Boc solid-phase peptide synthesis; benzhydrylamine resin. As to conditions: whole synthesis, scale 1.0 mmol.

“L-Asn-L-Gln-L-Glu-L-Gln-L-Val-L-Ser-L-Pro-L-Leu-L-Thr-L-Gly-L-Leu-L-Lys-NH” came in with a crude mass of 623 mg and an isolated mass of 130 mg.
